# This is one part of the list. Further columns of the screen follow, without active or inactive calls. The list favours compounds with an active or inconclusive main result. The note in brackets gives the kind of curve behind each potency; many fits are weak.
# Test: qHTS Assay for Lipid Storage Modulators in Drosophila S3 Cells;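 for cell number change: cells counted by Cell Tracker Red CMTPX staining in the red channel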
# Settings: BODIPY lipid droplet fluorescence, 18-24 h; for cell number change: measured here: cell count max response, cells fed with added oleic acid
# How it was run: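 Drosophila S3 cells got compounds at several concentrations plus oleic acid (400 uM solution). Laser-scanning cytometry with 488 nm excitation read lipid droplets at 500-530 nm and cells at 575-640 nm. Percent activity was relative to 20 uM Triacsin C.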
# [1] = measured here: cell number channel AC50, cells fed with added oleic acid
# [2] = measured here: lipid fluorescence (Fed channel) AC50, cells fed with added oleic acid
smiles,measurement,setting,value
O=C(Nc1cc(C(F)(F)F)ccc1-n1cncn1)c1ccc([N+](=O)[O-])o1,cell number change,,28.9%
same,AC50,[1],"0.058 µM [rising, full curve]"
same,AC50,[2],"0.0651 µM [rising, full curve, poor fit]"
CC(=O)Nc1ccc(S(=O)(=O)N2CCN(c3nc4ccccc4n3CC(C)C)CC2)cc1,cell number change,,15.2%
same,AC50,[2],"0.0326 µM [rising, full curve, poor fit]"
CC(=O)c1cccc(OCC(=O)Nc2cccc(C(=O)Nc3c(C)n(C)n(-c4ccccc4)c3=O)c2)c1,cell number change,,2.19%
O=C1N=c2ccc([N+](=O)[O-])cc2=C1c1sc(=O)[nH]c1O,cell number change,,-22%
COc1ccc(NC(=O)c2c(-c3ccccc3)noc2C)c(OC)c1,cell number change,,53.2%
same,AC50,[1],"29.1 µM [rising, single point]"
Cc1ccc2nc(Br)c3c(c2c1)OC(CBr)C3 (stereo not given),cell number change,,-22.6%
same,AC50,[2],"13 µM [falling, partial curve]"
Cc1cc(C)c(C#N)c(N2CCN(c3ccccc3F)CC2)n1,cell number change,,15.5%
O=C(O)CSc1nnc(-c2ccc(Cl)cc2Cl)n1Cc1ccccc1,AC50,[2],"7.31 µM [falling, partial curve]"
CCc1ccc(-c2cc3c(=O)n(CC(=O)NCCCN4CCN(C)CC4)ncn3n2)cc1,AC50,[2],"29.1 µM [rising, single point]"
O=C(NCCCN1CCOCC1)c1ccc2c(=O)n(Cc3cccc(Br)c3)c(=S)[nH]c2c1,cell number change,,9.91%
same,AC50,[2],"6.51 µM [rising, single point]"
C/C(=N/NC(=O)c1ccc(C)s1)c1ccncc1,cell number change,,6.9%
same,AC50,[2],"5.17 µM [rising, full curve, poor fit]"
COc1cc(-n2c(N)c(C(=O)NCc3ccco3)c3nc4ccccc4nc32)cc(OC)c1OC,cell number change,,5.57%
same,AC50,[2],"0.651 µM [rising, partial curve]"
CC1(C)CC(Nc2ccc(Nc3ccccc3)cc2)CC(C)(C)N1,cell number change,,-57.7%
same,AC50,[1],"23.1 µM [falling, single point]"
same,AC50,[2],"25.9 µM [falling, partial curve, poor fit]"
CCCCc1ccc(Nc2nc(N3CCOCC3)nc(N3CCOCC3)n2)cc1,cell number change,,10.1%
same,AC50,[2],"29.1 µM [rising, single point]"
Cc1ccccc1-n1c(CSC(=N)N)nc2ccccc2c1=O,cell number change,,9.42%
same,AC50,[2],"0.58 µM [falling, single point]"
Cc1ccc(CCNC(=O)C2CCN(S(=O)(=O)N3CCC4(CC3)OCCO4)CC2)cc1,cell number change,,174%
same,AC50,[2],"29.1 µM [rising, single point]"
CCn1c(CNC(=O)c2ccco2)nnc1SCC(=O)Nc1cc(F)ccc1C,cell number change,,2.86%
COC(=O)CNC(=O)C(Cc1c[nH]c2ccccc12)NC(=O)OC(C)(C)C (stereo not given),cell number change,,-2.88%
same,AC50,[2],"29.1 µM [rising, single point]"
COCCNC(=O)Cn1cnc2c1c(=O)n(C)c(=O)n2C,cell number change,,-55.5%
same,AC50,[1],"23.1 µM [falling, single point]"
same,AC50,[2],"29.1 µM [falling, single point]"
Cc1ccc(C)c(CN2CCCN(C(=O)Cn3ncc4c3-c3ccccc3OC4)C2)c1,cell number change,,-16.7%
same,AC50,[2],"2.59 µM [rising, partial curve]"
CC(C)[C@@H](CO)NC(=O)c1ccc2c3n(nc2c1)-c1ccc(Cl)cc1CO3,cell number change,,-0.982%
same,AC50,[2],"6.51 µM [falling, single point]"
COc1ccc(C(=O)NNS(=O)(=O)c2ccccc2)cc1,cell number change,,36.9%
same,AC50,[1],"29.1 µM [rising, single point]"
same,AC50,[2],"13 µM [rising, partial curve]"
COc1cccc(CNC(=O)Cc2csc(NC(=O)Nc3ccccc3OC)n2)c1,AC50,[1],"0.146 µM [rising, full curve, poor fit]"
Cc1ccc(SCC(=O)Nc2ccccc2N2CCOCC2)cc1,cell number change,,30.4%
same,AC50,[1],"0.411 µM [rising, full curve, poor fit]"
CCCc1cc(=O)oc2cc(OC3CCCCC3=O)ccc12 (stereo not given),cell number change,,-2.13%
same,AC50,[2],"0.651 µM [falling, full curve, poor fit]"
Cc1oc(-c2ccccc2Cl)nc1CS(=O)CC(=O)NCc1ccc(Cl)cc1 (stereo not given),cell number change,,25.8%
same,AC50,[1],"6.51 µM [rising, partial curve, poor fit]"
CCC1(C)Cc2ccccc2C(Nc2c(C)n(C)n(-c3ccccc3)c2=O)=N1 (stereo not given),cell number change,,31%
same,AC50,[1],"9.2 µM [rising, partial curve]"
same,AC50,[2],"6.51 µM [falling, single point]"
CN(c1ccccc1)S(=O)(=O)c1cccc(NC(=O)COc2cccc([N+](=O)[O-])c2)c1,cell number change,,2.02%
same,AC50,[2],"2.31 µM [rising, partial curve, poor fit]"
CCCCNC(=O)/C=C/c1ccc(S(=O)(=O)Nc2ccc(OC)cc2)cc1,AC50,[1],"0.731 µM [falling, single point]"
same,AC50,[2],"0.731 µM [falling, single point]"
Cc1cccc(OCc2nnc(SCC(=O)Nc3ncc(C)s3)o2)c1,cell number change,,17.3%
COc1c2ccoc2nc2c(OC)cccc12,cell number change,,11.1%
same,AC50,[2],"29.1 µM [rising, single point]"
COCCNC(=O)CN(C)S(=O)(=O)c1ccc2c(c1)OCCO2,AC50,[1],"0.731 µM [falling, single point]"
C/C(=N\NC(=O)C1COc2ccccc2O1)c1cccs1 (stereo not given),cell number change,,33.9%
same,AC50,[1],"5.8 µM [rising, full curve, poor fit]"
Cc1ccsc1C1C(C#N)=C(N)N(N(C)C)C2=C1C(=O)CCC2 (stereo not given),cell number change,,-70.4%
same,AC50,[1],"2.59 µM [falling, partial curve]"
same,AC50,[2],"0.206 µM [falling, full curve, poor fit]"
O=C(NCC(c1ccco1)N1CCCC1)c1sc2ccccc2c1Cl (stereo not given),cell number change,,8.5%
same,AC50,[2],"4.61 µM [falling, full curve, poor fit]"
Nc1c2c(nc3ccn(-c4ccccc4)c(=O)c13)CCCCC2,cell number change,,2.37%
same,AC50,[2],"0.116 µM [falling, full curve]"
COc1ccc(CNS(=O)(=O)c2cc3c4c(c2)CCN4C(=O)CC3)cc1,cell number change,,7.2%
same,AC50,[2],"29.1 µM [falling, single point]"
CCOC(=O)c1sc(=S)n(Cc2ccccc2)c1N,cell number change,,-31%
same,AC50,[1],"16.4 µM [falling, partial curve, poor fit]"
CN1CCc2nc(SCC(=O)Nc3ccc(F)cc3)c(C#N)cc2C1,AC50,[2],"0.411 µM [rising, single point]"
Fc1ccc(NC(=S)N2CCN(C/C=C/c3ccccc3)CC2)c(F)c1,cell number change,,-60.5%
CCC(C)[C@H](N)c1nnc(SCc2cccc(F)c2)o1 (stereo not given in full),cell number change,,0.182%
CCCCSc1nc(N)c(C#N)c(-c2cccs2)c1C#N,cell number change,,-9.85%
same,AC50,[2],"1.84 µM [rising, partial curve]"
CCOC(=O)C1=C(COC(=O)Cc2ccccc2F)NC(=O)NC1C (stereo not given),cell number change,,-5.86%
same,AC50,[2],"25.9 µM [falling, partial curve, poor fit]"
COCCN(C(=S)Nc1c(C)cccc1C)C(C)c1cccnc1 (stereo not given),cell number change,,64%
same,AC50,[1],"29.1 µM [rising, single point]"
same,AC50,[2],"6.51 µM [rising, single point]"
COc1ccccc1-c1ocnc1C(=O)Nc1ccc(N2CCOCC2)cc1N1CCOCC1,cell number change,,-6.05%
same,AC50,[1],"4.11 µM [falling, single point]"
same,AC50,[2],"29.1 µM [falling, single point]"
Cn1c(=O)[nH]c(=O)c2[nH]c(NCCCN3CCOCC3)nc21,cell number change,,-35.4%
same,AC50,[1],"0.231 µM [falling, full curve, poor fit]"
same,AC50,[2],"1.16 µM [falling, full curve]"
O=C(O)c1c(Cl)c(Cl)c(Cl)c(Cl)c1C(=O)N1CCCC1,cell number change,,-31.6%
same,AC50,[1],"29.1 µM [falling, single point]"
same,AC50,[2],"20.6 µM [falling, single point]"
Cc1cc(C)nc(Nc2cccc3ccccc23)n1,cell number change,,11.6%
same,AC50,[2],"29.1 µM [rising, single point]"
CCOC(=O)C1=C(C)N(Cc2ccc(C(=O)O)cc2)C(=O)NC1c1ccc([N+](=O)[O-])cc1 (stereo not given),cell number change,,1.66%
same,AC50,[2],"8.2 µM [falling, partial curve]"
COC(=O)c1sc(S(=O)(=O)Nc2ccc3cn[nH]c3c2)c(C(=O)OC)c1C,cell number change,,234%
Cc1ccc(C(=O)N2CCN(C)CC2)cc1S(=O)(=O)N1CCCCC1,cell number change,,-2.42%
COc1ccc(OC)c(NC(=O)CSc2ncnc3c2cnn3-c2ccccc2Cl)c1,cell number change,,-61.3%
same,AC50,[1],"2.31 µM [falling, full curve]"
same,AC50,[2],"2.31 µM [falling, full curve]"
CCc1nc(SCC(=O)Nc2cc(C)on2)n[nH]1,cell number change,,17.2%
same,AC50,[2],"32.6 µM [rising, partial curve]"
COc1cc(CN2CCN(c3ccccc3F)CC2)c([N+](=O)[O-])cc1OC,cell number change,,15.7%
same,AC50,[1],"0.517 µM [rising, full curve, poor fit]"
same,AC50,[2],"20.6 µM [rising, single point]"
Cc1oc2c(cc(NS(=O)(=O)c3ccc(C(C)C)cc3)c3ccccc32)c1C(=O)O,cell number change,,3.75%
same,AC50,[2],"0.164 µM [falling, single point]"
CN(C)S(=O)(=O)c1cccc(C(=O)Nc2ccc(S(=O)(=O)N3CCCC3)cc2)c1,AC50,[2],"5.8 µM [rising, single point]"
CSc1cccc(NC(=O)CCc2ccccc2)c1,cell number change,,9.27%
Cc1cccc(Oc2nc(CN3CCOCC3)nc3sc4c(c23)CCCC4)c1,AC50,[2],"18.4 µM [rising, single point]"
O=C(COC(=O)CCCNC(=O)c1ccc(Cl)cc1)NC1CC1,cell number change,,0.452%
same,AC50,[2],"0.0291 µM [rising, full curve, poor fit]"
O=S(=O)(c1cccs1)N1CN(Cc2ccccc2)c2nc3ccccc3nc21,cell number change,,-13%
same,AC50,[2],"7.31 µM [falling, partial curve, poor fit]"

# An excerpt of these results, tab-delimited.
smiles	measurement	setting	value
CC1(C)CC(Nc2ccc(Nc3ccccc3)cc2)CC(C)(C)N1	AC50	[1]	23.1 µM [falling, single point]
COc1ccc(C(=O)NNS(=O)(=O)c2ccccc2)cc1	AC50	[1]	29.1 µM [rising, single point]
CCCCNC(=O)/C=C/c1ccc(S(=O)(=O)Nc2ccc(OC)cc2)cc1	AC50	[1]	0.731 µM [falling, single point]
COc1c2ccoc2nc2c(OC)cccc12	cell number change		11.1%
COc1cc(CN2CCN(c3ccccc3F)CC2)c([N+](=O)[O-])cc1OC	cell number change		15.7%

# — PubChem BioAssay AID2685 (National Center for Advancing Translational Sciences (NCATS), 2010)
